Measurements reported in PMC9308819 (Nature Communications, 2022).
Results are given in words; binding and its absence hold for the method and conditions named.

Amino acid sequences for entries named in this document (tags omitted). A change or cut given only in a name is not applied to a line headed by its entry.
UniProt O95716: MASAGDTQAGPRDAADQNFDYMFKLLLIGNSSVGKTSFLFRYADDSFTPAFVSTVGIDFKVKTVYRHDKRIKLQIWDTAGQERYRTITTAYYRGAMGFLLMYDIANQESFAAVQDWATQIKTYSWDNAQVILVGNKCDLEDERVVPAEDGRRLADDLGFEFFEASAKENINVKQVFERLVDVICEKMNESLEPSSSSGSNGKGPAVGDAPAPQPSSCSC
UniProt P20337: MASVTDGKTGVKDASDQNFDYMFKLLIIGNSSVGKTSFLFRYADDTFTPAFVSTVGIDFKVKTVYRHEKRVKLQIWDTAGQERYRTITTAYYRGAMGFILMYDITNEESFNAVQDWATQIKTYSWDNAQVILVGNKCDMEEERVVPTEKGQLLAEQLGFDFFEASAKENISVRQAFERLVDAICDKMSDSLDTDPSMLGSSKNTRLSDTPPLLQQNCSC
UniProt P20336: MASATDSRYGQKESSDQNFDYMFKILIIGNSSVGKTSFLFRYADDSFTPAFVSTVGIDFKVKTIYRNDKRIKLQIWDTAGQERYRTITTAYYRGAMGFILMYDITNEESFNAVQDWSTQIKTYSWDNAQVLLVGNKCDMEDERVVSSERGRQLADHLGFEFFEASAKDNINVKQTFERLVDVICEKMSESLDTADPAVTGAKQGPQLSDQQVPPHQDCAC

Molecular target: T1, Rep15 in pGADT7 (yeast two-hybrid) (human) (UniProt Q6BDI9)
T1 sequence: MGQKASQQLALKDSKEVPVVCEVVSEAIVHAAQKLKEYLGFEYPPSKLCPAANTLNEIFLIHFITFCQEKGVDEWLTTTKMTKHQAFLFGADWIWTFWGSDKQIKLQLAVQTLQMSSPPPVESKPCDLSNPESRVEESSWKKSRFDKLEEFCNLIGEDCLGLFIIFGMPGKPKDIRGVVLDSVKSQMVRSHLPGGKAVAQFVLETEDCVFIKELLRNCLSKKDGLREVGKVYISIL
Experiment: two-hybrid; pLexA-Rab (Y187) mated with pGADT7-Rep15 (L40ΔGal4); growth on SD-LWH and SD-LWH + 2.5 mM 3-AT, 30 °C, 3–4 days

Row | binding | Substance
1 | no binding | Rab3D dominant inactive (SN/TN) in pLexA (yeast two-hybrid) (from UniProt O95716)
2 | no binding | Rab3B dominant inactive (SN/TN) in pLexA (yeast two-hybrid) (from UniProt P20337)
3 | no binding | Rab3A dominant inactive (SN/TN) in pLexA (yeast two-hybrid) (from UniProt P20336)
